# From the supplement of paper PMC9744312
# Values joined by “and” are separate entries in the source; they are usually repeats but may differ in a detail not shown here. Identical values can stand only once. Counter-ions that a name gives are not always drawn. This is one part of the list. This is a noisy data set.
# Test system: Peyronie's disease tunica albuginea primary fibroblasts
# Test: cell viability (DRAQ5 nuclear stain) relative to TGF-beta1-only control; higher = more viable cells
# Conditions: 10 µM; TGF-beta1 10 ng/mL; 72 h
row,Compound,cell viability
1,Cc1cc(O)cc(C)c1Cl [Chloroxylenol],93.1%
2,Oc1cccc(O)c1 [Resorcinol],102%
3,CS(=O)(=O)c1cccc(C[C@H](NC(=O)c2c(Cl)cc3c(c2Cl)CCN(C(=O)c2ccc4ccoc4c2)C3)C(=O)O)c1 [Lifitegrast],91.6%
4,COC(=O)CCC(=O)CN [Methyl Aminolevulinate Hydrochloride],92%
5,CC(=O)c1c(C)c2cnc(Nc3ccc(N4CCNCC4)cn3)nc2n(C2CCCC2)c1=O,58.9% and 34.4%
6,COc1nccnc1NS(=O)(=O)c1ccc(N)cc1 [Sulfalene(SMPZ)],94.2%
7,C#C[C@]1(O)CC[C@H]2[C@@H]3CCC4=CC(=O)CC[C@@H]4[C@H]3C(=C)C[C@@]21CC [Etonogestrel],96.8%
8,NC(=O)c1ccc(I)c([N+](=O)[O-])c1 [Iniparib (BSI-201)],93.3%
9,CC(C)N(CCCCOCC(=O)NS(C)(=O)=O)c1cnc(-c2ccccc2)c(-c2ccccc2)n1 [Selexipag],86.4%
10,O=C(O)c1cc(/N=N/c2ccc(S(=O)(=O)Nc3ccccn3)cc2)ccc1O [Sulfasalazine],96.5%
11,C/C(=C\C(=O)OCCCCCCCCC(=O)O)C[C@@H]1OC[C@H](C[C@@H]2O[C@H]2[C@@H](C)[C@H](C)O)[C@@H](O)[C@H]1O [Mupirocin],79%
12,C/C(=C\C(=O)OCCCCCCCCC(=O)O)C[C@@H]1OC[C@H](C[C@@H]2O[C@H]2[C@@H](C)[C@H](C)O)[C@@H](O)[C@H]1O [Mupirocin calcium],82.9%
13,CN/C(=N\CCSCc1nc[nH]c1C)NC#N [Cimetidine],86.6%
14,N/N=c1\[nH][nH]/c(=N\N)c2ccccc12 [Dihydralazine sulphate],73.2%
15,O=C(O)c1ccccc1O [Salicylic acid],110%
16,O=c1oc2cc(O)ccc2s1 [Tioxolone],83.6%
17,C[C@]12CCC3=C4CCC(=O)C=C4CC[C@H]3[C@@H]1CC[C@@]2(O)CC#N [Dienogest],97.6%
18,CCOc1ccc2nc(S(N)(=O)=O)sc2c1 [Ethoxzolamide],83.5%
19,CCOC(=O)[C@H](CCc1ccccc1)N[C@@H](C)C(=O)N1C(=O)N(C)C[C@H]1C(=O)O [Imidapril HCl],93.3%
20,C[C@@H]1C[C@H]2[C@@H]3CCC4=CC(=O)C=C[C@]4(C)[C@@]3(Cl)[C@@H](O)C[C@]2(C)[C@@]1(OC(=O)c1ccco1)C(=O)CCl [Mometasone furoate],84.4%
21,Cc1ccc(-n2nc(C(C)(C)C)cc2NC(=O)NCc2cc(F)ccc2Oc2ccc3c(cnn3CCO)c2)cc1 [Pexmetinib (ARRY-614)],121%
22,O=C(NC[C@H](O)CO)c1ccncc1Nc1ccc(I)cc1F,66.6%

row,Compound,cell viability
1,CC1(C)S[C@@H]2[C@H](NC(=O)[C@H](N)c3ccccc3)C(=O)N2[C@H]1C(=O)O [Ampicillin Trihydrate],96.8%
2,CC1(C)S[C@@H]2[C@H](NC(=O)[C@H](N)c3ccccc3)C(=O)N2[C@H]1C(=O)O [Ampicillin sodium],90.9%
3,O=c1n(CCCN2CCN(c3cccc(Cl)c3)CC2)nc2ccccn12 [Trazodone HCl],92.4%
4,O=C(O)c1cc(=O)[nH]c(=O)[nH]1 [Orotic acid (6-Carboxyuracil)],97.4%
5,C[C@]12CCC(=O)C=C1[C@@H]1C[C@@H]1[C@H]1[C@@H]3[C@@H]4C[C@@H]4[C@@]4(CCC(=O)O4)[C@@]3(C)CC[C@@H]12 [Drospirenone],103%
6,COc1ccc2cc([C@H](C)C(=O)O)ccc2c1 [Naproxen Sodium],101%
7,O=C(O)c1ccccc1OP(=O)(O)O [Fosfosal],96.4%
8,Cc1ncc([N+](=O)[O-])n1CC(C)O (stereo not given) [Secnidazole],96.3%
9,CC1=C(/C=C/C(C)=C/C=C/C(C)=C/CO)C(C)(C)CCC1 [Vitamin A],96%
10,COc1c(-c2ccc3cc(NS(C)(=O)=O)ccc3c2)cc(-n2ccc(=O)[nH]c2=O)cc1C(C)(C)C [Dasabuvir(ABT-333)],91.2%
11,Cc1[nH]c(=O)c(C#N)cc1-c1ccc2nccn2c1 [Olprinone],92.4%
12,CC(=O)O[C@H]1C(=O)[C@@]2(C)[C@H]([C@H](OC(=O)c3ccccc3)[C@]3(O)C[C@H](OC(=O)[C@H](O)[C@@H](NC(=O)c4ccccc4)c4ccccc4)C(C)=C1C3(C)C)[C@]1(OC(C)=O)CO[C@@H]1C[C@@H]2O [Paclitaxel],57.8%
13,O=C([O-])[C@H](O)[C@@H](O)[C@H](O)[C@H](O)CO.O=C([O-])[C@H](O)[C@@H](O)[C@H](O)[C@H](O)CO.[Ca+2] [Calcium gluconate],107%
14,CCCN(CCC)CCc1cccc2c1CC(=O)N2 [Ropinirole HCl],94%
15,O[C@H]1[C@H](O)[C@@H](O)[C@H](O)[C@@H](O)[C@H]1O [i-Inositol],93.5%
16,COc1cccc2c1C(=O)c1c(O)c3c(c(O)c1C2=O)C[C@@](O)(C(=O)CO)C[C@@H]3O[C@H]1C[C@H](N)[C@@H](O)[C@H](C)O1 [Epirubicin HCl],67.6%
17,CSc1nc2cc(Cl)c(Oc3cccc(Cl)c3Cl)cc2[nH]1 [Triclabendazole],91.9%
18,Cc1ccccc1N1CCN(CCc2nnc3n2CCCC3)CC1 [Dapiprazole Hydrochloride],91.7%
19,O=C(CCNNC(=O)c1ccncc1)NCc1ccccc1 [Nialamide],91.6%
20,CCCCC[C@H](O)/C=C/[C@H]1[C@H](O)CC(=O)[C@@H]1C/C=C\CCCC(=O)O [Prostaglandin E2 (PGE2)],88.5%
21,O=C1[C@@H]2[C@H]3CC[C@H](C3)[C@@H]2C(=O)N1C[C@@H]1CCCC[C@H]1CN1CCN(c2nsc3ccccc23)CC1 [lurasidone],87.9%
22,Cn1cnc2c(F)c(Nc3ccc(Br)cc3F)c(C(=O)NOCCO)cc21,66.9%

row,Compound,cell viability
1,NC(=O)c1cnccn1 [Pyrazinamide],92.2%
2,CO[C@@H]1[C@H](OC(=O)/C=C/C=C/C=C/C=C/C(=O)O)CC[C@]2(CO2)[C@H]1[C@@]1(C)O[C@@H]1CC=C(C)C [Fumagillin],72.8%
3,C[C@@H](O)[C@H]1C(=O)N2C(C(=O)O)=C(S[C@@H]3CN[C@H](C(=O)N(C)C)C3)[C@H](C)[C@H]12 [Meropenem],111%
4,C[C@@H](O)[C@H]1C(=O)N2C(C(=O)O)=C(S[C@@H]3CN[C@H](C(=O)N(C)C)C3)[C@H](C)[C@H]12 [Meropenem Trihydrate],51.7%
5,Cc1cc(C)cc(OCC2CNC(=O)O2)c1 (stereo not given) [Metaxalone],93%
6,CC(=O)O[C@H]1C[C@@H]2CC[C@@H]3[C@H](CC[C@@]4(C)[C@H]3C[C@H]([N+]3(C)CCCCC3)[C@@H]4OC(C)=O)[C@@]2(C)C[C@@H]1N1CCCCC1 [Vecuronium Bromide],98.3%
7,COc1ccc(NC(=O)c2ccc(C(=N)N(C)C)cc2)c(C(=O)Nc2ccc(Cl)cn2)c1 [Betrixaban],87.1%
8,COc1ccc(NC(=O)c2ccc(C(=N)N(C)C)cc2)c(C(=O)Nc2ccc(Cl)cn2)c1 [Betrixaban maleate],85%
9,CC1(C)O[C@@H]2C[C@H]3[C@@H]4CCC5=CC(=O)CC[C@]5(C)[C@@]4(F)[C@@H](O)C[C@]3(C)[C@]2(C(=O)CCl)O1 [Halcinonide],59.1%
10,C[C@]12C=CC(=O)C=C1CC[C@H]1[C@@H]3C[C@@H](O)[C@](O)(C(=O)CO)[C@@]3(C)C[C@H](O)[C@@]12F [Triamcinolone],73.5%
11,CCN(CC)C(=O)/C(C#N)=C/c1cc(O)c(O)c([N+](=O)[O-])c1 [Entacapone],103%
12,C[C@@H]1O[C@@H](OC[C@H]2O[C@@H](Oc3c(-c4ccc(OCCO)c(OCCO)c4)oc4cc(OCCO)cc(O)c4c3=O)[C@H](O)[C@@H](O)[C@@H]2O)[C@H](O)[C@H](O)[C@H]1O [Troxerutin],87.9%
13,C=C1CCN([C@H](C)[C@](O)(Cn2cncn2)c2ccc(F)cc2F)CC1 [Efinaconazole],90%
14,OC(c1cc(C(F)(F)F)nc2c(C(F)(F)F)cccc12)C1CCCCN1 (stereo not given) [Mefloquine HCl],43.2%
15,CNCCCC12CCC(c3ccccc31)c1ccccc12 [Maprotiline HCl],87.5%
16,CC[C@H]1OC(=O)C[C@@H](O)[C@H](C)[C@@H](O[C@@H]2O[C@H](C)[C@@H](O)[C@H](N(C)C)[C@H]2O)[C@@H](CCN2C[C@H](C)C[C@H](C)C2)C[C@@H](C)C(=O)/C=C/C(C)=C/[C@@H]1CO[C@@H]1O[C@H](C)[C@@H](O)[C@@H](OC)[C@H]1OC [Tilmicosin],25.3%
17,CC[C@H]1OC(=O)C[C@@H](O)[C@H](C)[C@@H](O[C@@H]2O[C@H](C)[C@@H](O)[C@H](N(C)C)[C@H]2O)[C@@H](CCN2C[C@H](C)C[C@H](C)C2)C[C@@H](C)C(=O)/C=C/C(C)=C/[C@@H]1CO[C@@H]1O[C@H](C)[C@@H](O)[C@@H](OC)[C@H]1OC [Tilmicosin phosphate],92.3%
18,CCCCCC(=O)O[C@]1(C(C)=O)CC[C@H]2[C@@H]3CCC4=CC(=O)CC[C@]4(C)[C@H]3CC[C@@]21C [Hydroxyprogesterone caproate],84%
19,CC1(C)C[C@@H]1C(=O)N/C(=C\CCCCSC[C@H](N)C(=O)O)C(=O)O [Cilastatin],100%
20,CCCCCNC(=N)N/N=C/c1c[nH]c2ccc(OC)cc12 [Tegaserod Maleate],59.7%
21,NS(=O)(=O)c1cc(Cl)c(Cl)c(S(N)(=O)=O)c1 [Dichlorphenamide (Diclofenamide)],78%
